Reference: patent publication US6884600
Results are given in words; binding and its absence hold for the method and conditions named. Some entries that bind do so weakly or less than the wild type. Where a sequence is shown, tags or fusion partners need not be part of it.

The chains behind the UniProt entries cited, without tags or fusion partners. Residues count along the entry.
UniProt P62143, residues 2-327: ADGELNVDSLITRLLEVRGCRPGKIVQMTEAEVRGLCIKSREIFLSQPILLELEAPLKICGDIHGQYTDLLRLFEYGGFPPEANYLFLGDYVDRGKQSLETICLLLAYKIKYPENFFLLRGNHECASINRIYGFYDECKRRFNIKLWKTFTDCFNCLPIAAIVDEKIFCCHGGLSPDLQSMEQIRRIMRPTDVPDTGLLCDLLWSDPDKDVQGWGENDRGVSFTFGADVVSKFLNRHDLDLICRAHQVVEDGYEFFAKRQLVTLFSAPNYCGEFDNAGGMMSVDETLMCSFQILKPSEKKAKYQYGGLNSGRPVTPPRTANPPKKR

Molecular target: β isoform of PP1c released from rabbit skeletal muscle PP1G (rabbit) (UniProt P62143)
Assay: inferred from the concentration giving maximal MLC20 phosphatase activation

binding: binds
B1: M110-(M1-E309), released from GST with thrombin (protein)
chain: GSPGMKMADAKQKRNEQLKRWIGSETDLEPPVVKRQKTKVKFDDGAVFLAACSSGDTDEVLKLLHRGADINYANVDGLTALHQACIDDNVDMVKFLVENGANINQPDNEGWIPLHAAASCGYLDIAEFLIGQGAHVGAVNSEGDTPLDIAEEEAMEELLQNEVNRQGVDIEAARKEEERIMLRDARQWLNSGHISDVRHAKSGGTALHVAAAKGYTEVLKLLIQAGYDVNIKDYDGWTPLHAAAHWGKEEACRILVDNLCDMETVNKVGQTAFDVADEDILGYLEELQKKQNLLHSEKRDKKSPLIESTANMEA
